# Data reported in PubChem BioAssay AID1487 (National Center for Advancing Translational Sciences (NCATS), 2009).
# Some of the results follow. Further columns of the screen follow, without active or inactive calls. Most of these compounds were active or inconclusive in the main read-out, so they are no random draw. Words in brackets tell the shape of the fitted curve; partial curves, single points and poor fits give uncertain potencies.
# Assay: qHTS Assay for Modulators of Lamin A Splicing
# Settings: HeLa LMNA splicing GFP/RFP minigene ratio, 48 h
# Procedure, shortened: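 S3 HeLa cells stably expressing lamin A-EGFP splicing minigene plus DsRed2, 600 cells/well, 48 h compound exposure at 37C. Laser-scanning cytometry; analysed as GFP (500-530 nm)/RFP (575-640 nm) total intensity ratio; 0.5% DMSO vehicle.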
# [1] = measured here: GFP splicing reporter channel
# [2] = measured here: RFP viability control channel
SMILES,AC50 [1],AC50 [2]
C=C(C)C1(O)OC(=O)C=C1OC (centres undefined),"11.2 µM [falling, partial curve]","8.91 µM [falling, single point]"
COc1ccc(NC(=O)C(=O)NCCc2csc(-c3ccc(Cl)cc3)n2)cc1,,"15.8 µM [rising, single point]"
CC(=O)N[C@@H](Cc1c[nH]c2ccccc12)C(=O)OCc1cc(C(F)(F)F)cc(C(F)(F)F)c1,"5.62 µM [falling, partial curve, poor fit]","5.62 µM [falling, single point]"
FC(F)Sc1ccc(-n2cc(-c3ccccc3)[n+]3c2CCC3)cc1,,"35.5 µM [rising, single point]"
C=CCOC(=O)N1CCN(c2cccc(C(F)(F)F)c2)CC1,"3.16 µM [falling, single point]","3.55 µM [falling, single point]"
CCCOc1ccc(Nc2nc(SC)ncc2C(=O)OCC)cc1,"3.98 µM [rising, partial curve, poor fit]","17.8 µM [rising, partial curve, poor fit]"
N#CC1=C(SCc2ccccc2)NC(=O)C(C#N)C12CCCC2 (centres undefined),"1 µM [rising, full curve]","5.62 µM [rising, partial curve]"
O=c1[nH]c(Cc2ccc(F)cc2)nc2scc(-c3ccc(F)cc3)c12,"4.47 µM [rising, full curve, poor fit]","11.2 µM [rising, partial curve, poor fit]"
Cc1nc2ccccc2n1CSc1ccccc1,"7.08 µM [rising, partial curve]","11.2 µM [rising, partial curve]"
Cc1cc(NC(=O)CS(=O)(=O)c2cn(Cc3ccccc3Cl)c3ccccc23)no1,,"14.1 µM [rising, partial curve]"
Oc1cccc2ccc(Nc3ccccn3)nc12,"14.1 µM [falling, partial curve]","35.5 µM [falling, single point]"
CCOC(=O)c1c(-c2ccccc2)csc1/N=C/C1C(=O)CCCC1=O,"2 µM [rising, partial curve, poor fit]",
COc1ccc(C2=C(Nc3ccc(F)cc3)c3ccccc3C2=O)cc1,"35.5 µM [falling, single point]",
COCc1ccc(C(=O)NC(C)c2cnn(-c3ccccc3C)c2C)o1 (centres undefined),"0.501 µM [falling, partial curve, poor fit]",
CS(=O)(=O)N1CCN(c2ccc(NC(=S)NC(=O)c3cccs3)cc2)CC1,"0.891 µM [falling, full curve, poor fit]",
CCOc1ccc(CCNC(=O)c2ccc(CS(=O)(=O)Cc3ccccc3Cl)o2)cc1OCC,"11.2 µM [falling, partial curve, poor fit]",
Cc1ccccc1CN1CCc2nc(Nc3ccc4c(c3)OCCO4)ncc2C1,,"5.62 µM [rising, partial curve, poor fit]"

SMILES,AC50 [1],AC50 [2]
Cc1ccc(S(=O)(=O)Nc2cc(C(=O)Nc3cc(C)cc(C)c3)ccc2Cl)cc1,"11.2 µM [rising, partial curve]","28.2 µM [rising, single point]"
CCCC(=O)c1ccc(N2CCN(S(=O)(=O)c3ccccc3)CC2)c(F)c1,"31.6 µM [rising, single point]","22.4 µM [rising, single point]"
O=C(CCSCCc1ccccn1)Nc1ccc(Cc2ccncc2)cc1,,"0.282 µM [rising, full curve, poor fit]"
Cc1cc(C(F)F)nn1CC(=O)Nc1cc([N+](=O)[O-])ccc1F,"7.94 µM [rising, partial curve, poor fit]",
CCCCOc1ccc(-c2cc(C(=O)NNC(=S)NCC)c3ccccc3n2)cc1,,"11.2 µM [falling, partial curve, poor fit]"
O=C(NN=C1CCCC1)c1cc(-c2ccc(F)cc2)nc2ccccc12,,"0.0794 µM [falling, full curve, poor fit]"
CC(NC(=O)CCn1c(=O)c2cccn2c2ccc(F)cc21)c1ccccc1 (centres undefined),"0.0282 µM [rising, full curve, poor fit]",
COc1ccc(-c2oc(NC(=O)CSc3ncn[nH]3)c(C#N)c2-c2ccc(OC)cc2)cc1,"31.6 µM [falling, single point]","35.5 µM [falling, single point]"
Cc1noc(C)c1COc1cccc(C(=O)NCc2ccccc2Cl)c1,,"12.6 µM [rising, single point]"
CCN(CC)CCNC(=O)C1CCN(S(=O)(=O)c2c(C)noc2/C=C/c2ccccc2F)CC1,"35.5 µM [rising, single point]","35.5 µM [rising, single point]"
CCN(CC)c1ccc2cc(-c3nnc(-c4ccncc4)o3)c(=O)oc2c1,,"7.08 µM [falling, partial curve, poor fit]"
CCC/C=N/NC(=O)c1[nH]c2c([N+](=O)[O-])cccc2c1C,,"3.16 µM [rising, partial curve]"
O=C(Cc1cccs1)NC1CC(=O)N(c2ccccc2)C1 (centres undefined),"0.158 µM [falling, full curve, poor fit]",
O=C(Cc1ccccc1F)Nc1ccc(SC(F)F)cc1,"11.2 µM [rising, single point]","35.5 µM [rising, single point]"
Cc1sc(NC(=O)C2C3CCC(C3)C2C(=O)O)c(C(N)=O)c1-c1ccc(C(C)(C)C)cc1 (centres undefined),"14.1 µM [rising, partial curve]","22.4 µM [rising, single point]"
COc1ccc(C(c2nnnn2Cc2ccccc2)N2CCN(c3nc4ccccc4s3)CC2)cc1OC (centres undefined),"35.5 µM [rising, single point]","22.4 µM [rising, single point]"
CCOC(=O)c1cc(-c2ccc(F)cc2)n(CC(=O)NC2CCCCC2)c1C,"7.94 µM [rising, partial curve, poor fit]",

# Looked up above:
# AC50 [1], CCCC(=O)c1ccc(N2CCN(S(=O)(=O)c3ccccc3)CC2)c(F)c1 reads 31.6 µM [rising, single point]
# AC50 [2], CCC/C=N/NC(=O)c1[nH]c2c([N+](=O)[O-])cccc2c1C reads 3.16 µM [rising, partial curve]
